From US20230192896A1
No constants are given. Whether binding was seen depends on the method and setting. Some binding calls cover weakened binding; strength is not graded here.

The chains behind the UniProt entries cited, without tags or fusion partners. Where a name states a change or a piece, a line headed by the entry shows the natural chain unless it says otherwise. Residues count along the entry.
UniProt P00740: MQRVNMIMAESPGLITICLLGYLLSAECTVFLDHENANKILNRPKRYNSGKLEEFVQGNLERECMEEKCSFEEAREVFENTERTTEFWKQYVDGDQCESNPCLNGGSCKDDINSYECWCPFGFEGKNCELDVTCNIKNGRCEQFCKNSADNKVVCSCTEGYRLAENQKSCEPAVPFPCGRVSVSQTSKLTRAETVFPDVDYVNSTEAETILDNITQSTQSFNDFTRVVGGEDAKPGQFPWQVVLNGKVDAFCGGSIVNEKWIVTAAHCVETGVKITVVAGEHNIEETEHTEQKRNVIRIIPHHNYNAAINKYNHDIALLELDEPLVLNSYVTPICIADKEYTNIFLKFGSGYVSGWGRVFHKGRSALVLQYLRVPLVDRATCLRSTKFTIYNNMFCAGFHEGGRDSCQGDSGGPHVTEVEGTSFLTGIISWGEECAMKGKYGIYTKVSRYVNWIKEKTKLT
UniProt P01008, residues 33-464: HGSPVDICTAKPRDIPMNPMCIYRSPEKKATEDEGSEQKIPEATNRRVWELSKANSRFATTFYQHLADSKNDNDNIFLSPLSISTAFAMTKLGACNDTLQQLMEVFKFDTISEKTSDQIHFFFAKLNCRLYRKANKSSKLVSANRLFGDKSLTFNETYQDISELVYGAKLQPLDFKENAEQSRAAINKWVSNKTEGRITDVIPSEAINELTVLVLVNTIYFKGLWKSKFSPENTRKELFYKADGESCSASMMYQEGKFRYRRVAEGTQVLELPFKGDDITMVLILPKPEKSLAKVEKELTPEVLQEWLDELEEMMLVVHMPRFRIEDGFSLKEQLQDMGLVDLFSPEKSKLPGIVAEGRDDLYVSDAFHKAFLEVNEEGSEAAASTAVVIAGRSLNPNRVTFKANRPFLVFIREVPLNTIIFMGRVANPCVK

Target: free FIXa (activated Factor IX) (human) (UniProt P00740)
Test: non-reducing SDS gel of 500 nM FIXa with 5000 nM ATIII

Substance: Anti-thrombin III (ATIII) (from UniProt P01008 33-464)
- binding: binds
